Reference: paper PMC5460901
These are yes or no findings as the source states them, for the method shown. Binding seen in cells or lysates may run through a third protein. Binding calls can cover weak binding; strength is not graded here. Where a sequence is shown, tags or fusion partners need not be part of it.

Experiments:
[1] = target: T1, Receptor-transporting protein RTP2, Flag-tagged (UniProt Q80ZI2); test: co-IP; HEK293T cells co-transfected; lysis in 50 mM Tris pH 7.4, 150 mM NaCl, 1% NP-40; lysate on anti-Flag M2 affinity gel overnight at 4 °C; HA-tagged proteins detected by anti-HA blot
T1 sequence: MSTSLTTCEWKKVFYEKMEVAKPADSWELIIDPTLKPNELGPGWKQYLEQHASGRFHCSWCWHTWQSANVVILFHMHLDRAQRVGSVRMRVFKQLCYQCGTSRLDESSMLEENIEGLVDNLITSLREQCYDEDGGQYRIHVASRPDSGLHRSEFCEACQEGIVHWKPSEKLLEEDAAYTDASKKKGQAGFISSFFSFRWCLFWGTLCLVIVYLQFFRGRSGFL

[2] = target: Receptor-transporting protein RTP1S, HA-tagged; test: co-IP; HEK293T cells co-transfected; lysis in 50 mM Tris pH 7.4, 150 mM NaCl, 1% NP-40; lysate on anti-HA affinity matrix overnight at 4 °C; Flag-tagged proteins detected by anti-Flag blot

| Molecule | binding [1] | binding [2] |
| --- | --- | --- |
| Receptor-transporting protein RTP1S, HA-tagged | binds | – |
| Receptor-transporting protein RTP2, Flag-tagged (protein, UniProt Q80ZI2 1-223) MSTSLTTCEWKKVFYEKMEVAKPADSWELIIDPTLKPNELGPGWKQYLEQHASGRFHCSWCWHTWQSANVVILFHMHLDRAQRVGSVRMRVFKQLCYQCGTSRLDESSMLEENIEGLVDNLITSLREQCYDEDGGQYRIHVASRPDSGLHRSEFCEACQEGIVHWKPSEKLLEEDAAYTDASKKKGQAGFISSFFSFRWCLFWGTLCLVIVYLQFFRGRSGFL | – | binds |
